Measurements taken from article PMC5125011, “Soluble Siglec-5 associates to PSGL-1 and displays anti-inflammatory activity” (Scientific Reports, 2016).
No constants are given. Whether binding was seen depends on the method and setting. For some assays here: In cells and extracts the contact can be indirect. Some binding calls cover weakened binding; strength is not graded here. For some assays here: Sequences can lack the tags named with a protein.

Experiments:
[1] = molecular target: heptameric Siglec-5/C4BP fusion protein (UniProt O15389); experiment: BLI; Octet-QK; sSiglec-5/C4BP (10 μg/ml) immobilised onto amine-coupling biosensors, incubated with sPSGL1/Fc, sL-selectin/Fc or sCD44/Fc (10 μg/ml); preliminary experiments; both purified
[2] = molecular target: T1, PSGL1 (naturally expressed on leukocytes) (human (endogenous in PBMCs)) (UniProt Q14242); experiment: proximity ligation; Duolink-PLA on fixed, permeabilised human PBMCs; polyclonal anti-Siglec-5 and monoclonal anti-PSGL1 antibodies; signal only when the two antigens are less than 40 nm apart
T1 sequence: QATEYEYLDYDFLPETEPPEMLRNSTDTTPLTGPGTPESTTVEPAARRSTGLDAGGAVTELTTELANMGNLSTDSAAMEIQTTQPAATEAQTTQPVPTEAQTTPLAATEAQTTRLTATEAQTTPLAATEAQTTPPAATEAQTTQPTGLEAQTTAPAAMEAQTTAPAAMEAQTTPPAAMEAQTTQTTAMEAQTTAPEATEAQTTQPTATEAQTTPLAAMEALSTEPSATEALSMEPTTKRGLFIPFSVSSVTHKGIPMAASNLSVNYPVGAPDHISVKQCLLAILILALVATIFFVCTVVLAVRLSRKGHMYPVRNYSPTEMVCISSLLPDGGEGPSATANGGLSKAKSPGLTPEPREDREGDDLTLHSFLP

Binder	binding [1]	binding [2]
soluble recombinant human L-selectin fused to human Fc (Fc fusion, UniProt P14151 39-332) WTYHYSEKPMNWQRARRFCRDNYTDLVAIQNKAEIEYLEKTLPFSRSYYWIGIRKIGGIWTWVGTNKSLTEEAENWGDGEPNNKKNKEDCVEIYIKRNKDAGKWNDDACHKLKAALCYTASCQPWSCSGHGECVEIINNYTCNCDVGYYGPQCQFVIQCEPLEAPELGTMDCTHPLGNFSFSSQCAFSCSEGTNLTGIEETTCGPFGNWSSPEPTCQVIQCEPLSAPDLGIMNCSHPLASFSFTSACTFICSEGTELIGKKKTICESSGIWSNPSPICQKLDKSFSMIKEGDYN	binds	–
Siglec-5 (naturally expressed on PBMCs) (receptor, UniProt O15389 17-551) EKPVYELQVQKSVTVQEGLCVLVPCSFSYPWRSWYSSPPLYVYWFRDGEIPYYAEVVATNNPDRRVKPETQGRFRLLGDVQKKNCSLSIGDARMEDTGSYFFRVERGRDVKYSYQQNKLNLEVTALIEKPDIHFLEPLESGRPTRLSCSLPGSCEAGPPLTFSWTGNALSPLDPETTRSSELTLTPRPEDHGTNLTCQMKRQGAQVTTERTVQLNVSYAPQTITIFRNGIALEILQNTSYLPVLEGQALRLLCDAPSNPPAHLSWFQGSPALNATPISNTGILELRRVRSAEEGGFTCRAQHPLGFLQIFLNLSVYSLPQLLGPSCSWEAEGLHCRCSFRARPAPSLCWRLEEKPLEGNSSQGSFKVNSSSAGPWANSSLILHGGLSSDLKVSCKAWNIYGSQSGSVLLLQGRSNLGTGVVPAALGGAGVMALLCICLCLIFFLIVKARRKQAAGRPEKMDDEDPIMGTITSGSRKKPWPDSPGDQASPPGDAPPLEEQKELHYASLSFSEMKSREPKDQEAPSTTEYSEIKTSK	–	binds
